The values below come from publication PMC8443706, “Functionally diverse heteromeric traps for ligands of the transforming growth factor-β superfamily” (Scientific Reports, 2021).

Amino acid sequences for entries named in this document (tags omitted). Residues count along the entry.
UniProt P36896, residues 24-126: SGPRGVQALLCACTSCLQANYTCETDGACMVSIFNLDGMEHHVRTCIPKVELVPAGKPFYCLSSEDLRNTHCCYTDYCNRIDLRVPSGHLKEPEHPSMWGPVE
UniProt O14793, residues 267-375: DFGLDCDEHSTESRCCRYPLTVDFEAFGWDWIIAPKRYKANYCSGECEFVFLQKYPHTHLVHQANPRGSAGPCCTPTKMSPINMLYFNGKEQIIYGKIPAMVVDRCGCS

These are yes or no findings as the source states them, for the method shown. For some assays here: Tags and fused reporters may be left off the sequences shown.

Assay in all cases: SPR; Biacore 8K, 37 °C; Fc-fusion receptor dimers captured by anti-human Fc antibody on a CM5 chip (100-150 RU); ligands injected in two-fold dilution series (300 s association, 600 s dissociation); HBS-EP+ supplemented with 350 mM NaCl and 0.5 mg/mL BSA; 1:1 Langmuir model with a term for mass transport; both purified
In general terms: Surface plasmon resonance follows binding to a sensor surface in real time, without labels.

Test [1] has as its target T1, ALK7-Fc:ALK7-Fc homodimer (human ALK7 ECD fused to human IgG1 Fc) (human) (UniProt Q8NER5).
T1 sequence: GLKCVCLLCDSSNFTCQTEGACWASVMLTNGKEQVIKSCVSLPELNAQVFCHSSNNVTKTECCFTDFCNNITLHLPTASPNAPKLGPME

The target of test [2] is ALK3-Fc:ALK3-Fc homodimer (human ALK3 ECD fused to human IgG1 Fc) (human) (UniProt P36894).
Test [3] concerns the target T2, IIB-Fc:ALK7-Fc heterodimer (human ActRIIB ECD-Fc paired with human ALK7 ECD-Fc) (human) (UniProt Q13705+Q8NER5).
T2 sequence 1: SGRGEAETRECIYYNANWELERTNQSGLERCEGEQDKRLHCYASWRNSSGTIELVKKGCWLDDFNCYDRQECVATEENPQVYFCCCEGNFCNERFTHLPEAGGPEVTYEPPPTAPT
T2 sequence 2: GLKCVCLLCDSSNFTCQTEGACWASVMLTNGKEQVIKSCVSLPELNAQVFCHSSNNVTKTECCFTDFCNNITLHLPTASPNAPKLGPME

Test [4] addresses ALK4-Fc:ALK4-Fc homodimer (R&D Systems Cat #808-AR-100) (human) (UniProt P36896).
Test [5] concerns the target IIB-Fc:ALK4-Fc heterodimer (human ActRIIB ECD-Fc paired with human ALK4 ECD-Fc) (human) (UniProt Q13705+P36896).
Test [6] has as its target T3, ALK3-Fc:ALK3-Fc homodimer (human ALK3 ECD fused to human IgG1 Fc) (human), P36894.
T3 chain: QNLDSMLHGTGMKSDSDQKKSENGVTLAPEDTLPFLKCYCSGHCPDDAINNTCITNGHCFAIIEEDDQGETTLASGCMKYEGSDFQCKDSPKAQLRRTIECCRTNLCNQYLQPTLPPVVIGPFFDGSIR
The conditions noted are these: remark: other sources report otherwise.

“growth differentiation factor 8 (GDF8, or myostatin) (from UniProt O14793 267-375) (ligand)”: the binding result in test [1] and in test [2] was “no binding” in each case.

B1: BMP4 (ligand, human, UniProt P12644 293-408, looked up)
chain: SPKHHSQRARKKNKNCRRHSLYVDFSDVGWNDWIVAPPGYQAFYCHGDCPFPLADHLNSTNHAIVQTLVNSVNSSIPKACCVPTELSAISMLYLDEYDKVVLKNYQEMVVEGCGCR
notes: source: bought: R&D Systems
As to B1, the binding entry in test [1], in test [3], in test [4] and in test [5] was “no binding” each time.

B2: BMP6 (ligand, human, UniProt P22004 375-513, looked up)
chain: SASSRRRQQSRNRSTQSQDVARVSSASDYNSSELKTACRKHELYVSFQDLGWQDWIIAPKGYAANYCDGECSFPLNAHMNATNHAIVQTLVHLMNPEYVPKPCCAPTKLNAISVLYFDDNSNVILKKYRNMVVRACGCH
notes: source: bought: R&D Systems
With B2, the binding entry in test [1] and in test [4] was “no binding” throughout.

B3: BMP7 (ligand, human, UniProt P18075 293-431, looked up)
chain: STGSKQRSQNRSKTPKNQEALRMANVAENSSSDQRQACKKHELYVSFRDLGWQDWIIAPEGYAAYYCEGECAFPLNSYMNATNHAIVQTLVHFINPETVPKPCCAPTQLNAISVLYFDDSSNVILKKYRNMVVRACGCH
notes: source: bought: R&D Systems
On to B3, for which the binding entry in test [6], in test [1] and in test [4] was “no binding” throughout.

B4: activin A (ligand, human, UniProt P08476 311-426, looked up)
chain: GLECDGKVNICCKKQFFVSFKDIGWNDWIIAPSGYHANYCEGECPSHIAGTSGSSLSFHSTVINHYRMRGHSPFANLKSCCVPTKLRPMSMLYYDDGQNIIKKDIQNMIVEECGCS
notes: source: generated in house
Consider B4, for which the binding entry in test [1] is on record as “no binding”.

B5: GDF11 (ligand, human, UniProt O95390 299-407, looked up)
chain: NLGLDCDEHSSESRCCRYPLTVDFEAFGWDWIIAPKRYKANYCSGQCEYMFMQKYPHTHLVQQANPRGSAGPCCTPTKMSPINMLYFNDKQQIIYGKIPGMVVDRCGCS
notes: source: generated in house
Regarding B5, the binding result in test [1] and in test [2] was “no binding” each time.

B6: activin B (ligand, human, UniProt P09529 293-407, looked up)
chain: GLECDGRTNLCCRQQFFIDFRLIGWNDWIIAPTGYYGNYCEGSCPAYLAGVPGSASSFHTAVVNQYRMRGLNPGTVNSCCIPTKLSTMSMLYFDDEYNIVKRDVPNMIVEECGCA
notes: source: generated in house
With B6, the binding entry in test [1], in test [4] and in test [2] was “no binding” throughout.

B7: GDF3 (ligand, human, UniProt Q9NR23 251-364, looked up)
chain: AAIPVPKLSCKNLCHRHQLFINFRDLGWHKWIIAPKGFMANYCHGECPFSLTISLNSSNYAFMQALMHAVDPEIPQAVCIPTKLSPISMLYQDNNDNVILRHYEDMVVDECGCG
notes: source: bought: R&D Systems
For B7, the binding result in test [1], in test [4] and in test [2] was “no binding” throughout.

B8: BMP9 (ligand, human, UniProt Q9UK05 320-429, looked up)
chain: SAGAGSHCQKTSLRVNFEDIGWDSWIIAPKEYEAYECKGGCFFPLADDVTPTKHAIVQTLVHLKFPTKVGKACCVPTKLSPISVLYKDDMGVPTLKYHYEGMSVAECGCR
notes: source: generated in house
For the molecule B8, the binding entry in test [1], in test [4] and in test [2] was “no binding” each time.

B9: BMP10 (ligand, human, UniProt O95393 317-424, looked up)
chain: NAKGNYCKRTPLYIDFKEIGWDSWIIAPPGYEAYECRGVCNYPLAEHLTPTKHAIIQALVHLKNSQKASKACCVPTKLEPISILYLDKGVVTYKFKYEGMAVSECGCR
notes: source: bought: R&D Systems
Consider B9, for which the binding entry in test [1], in test [4] and in test [2] was “no binding” throughout.
